Source: the supplement of paper PMC10338343
± gives the standard deviation. The list shows a part of the results, in another mix than the full data. Many entries were measured with a wide error.

system: MIWI (PIWIL1) piRISC loaded with L1MC piRNA (30 nt); assay: pre-steady-state target cleavage rate (min^-1); MIWI and MILI are mouse PIWI proteins and EfPiwi is from a freshwater sponge; tags in brackets are library labels; higher = faster piRNA-guided slicing of the target; settings: guide: L1MC piRNA 5'p-UAACUAAAUACUAUGCAAGCUGUAGGUCCU; auxiliary factor: 500 nM mouse GTSF1
Summary of the method: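 With or without 500 nM GTSF1 partner protein, 1 nM active affinity-purified piRISC carrying one synthetic guide was mixed with 0.1 nM transcribed, DNA-blocked target RNA library in HEPES–potassium acetate buffer at 33 °C for 0–8 or 0–960 min. Uncleaved targets were sequenced and normalised to depth and to weakly complementary targets, three trials were pooled, and k3 was capped at 0.0001 min^-1. The pre-steady-state cleavage rate came from a burst-and-steady-state fit.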

Row | Sequence | pre-steady-state target cleavage rate
1 | UCCUGGAUGUCGAACGUAUCUAUUUACUUA | 0.000201 ± 0.023
2 | UCCUGGAUGUCGAACGUAUCUAUUUAUUA | 0.000181 ± 0.032
3 | UCCUGGAUGUCGAACCAUACUAUAUAGUUA | 0.000191 ± 0.029
4 | AGCUGCUACAGCUUGCAUAGUAUUUAGUUA | 1.49 ± 0.07

same assay, conditions: guide: L1MC piRNA 5'p-UAACUAAAUACUAUGCAAGCUGUAGGUCCU; auxiliary factor: none (no GTSF1)

Row | Sequence | pre-steady-state target cleavage rate
5 | UCCACGUACAGCUUGCAUAGUAUUUUCAAA | 0.00217 ± 0.0031
6 | UCCACCUACACCUUGCAUAGUAUUUUCAAA | 0.00208 ± 0.0022
7 | UCCACCUACAGCUUGCAUAGUUUUUACAAA | 0.00116 ± 0.006
8 | UGGACCUACAGCUUGCAUAGAUAAAUCAAA [g11:g29:cont:t1A] | 0.000221 ± 0.012
9 | UCCUGGUACAGCUUGCAUAGUAUAAUCAAA [g8:g24:cont:t1A] | 0.000347 ± 0.0085
10 | UCCACCUACAGCUUGCAUAGAUUUUACAAA | 0.000276 ± 0.013
11 | UCCUGGAUGUCGAACGUAAGUAUUAGUUA | 0.000175 ± 0.036
12 | UCCACCUACAGCUUGCAUACAAUUUAGUAA | 0.00151 ± 0.0043
13 | UCGACCUACAGCUUGCUAUGUAUUUAGUAA | 0.00194 ± 0.0029
14 | AGGACCUACAGCUAGCAUAGUAUUUUCAAA | 0.0016 ± 0.0044
15 | UCGACCUACAGCUUGCAUAGUUUUAGUUA | 0.00121 ± 0.0056
16 | UCGACCUACAGCUUGCAUUCAAUUUAGUUA | 0.00121 ± 0.0054
17 | UGGACCUACUCCUUGCAUAGUAUUUUCAAA | 0.00222 ± 0.0033
18 | UCCACCUACUCCUUGCAUAGUAUUUUCAAA | 0.00155 ± 0.0018
19 | UCCUGGAUGUCGAACCAUAGUAUAAUCAAA [g8:g15:cont:t1A] | 0.000206 ± 0.026
20 | UCCACCUACAGCUUGCAUACAUUUUAGUUA | 0.000777 ± 0.0066
21 | UCCACCUACAGCUUGCUAUGUAUUUACAAA | 0.000178 ± 0.014
22 | UCCACCUACAGCUUCCAUAGUAUUAAGUUA | 0.000768 ± 0.0068
23 | UCGACCUACAGCUUGCAUAGUAUAAAGAAA | 0.00161 ± 0.0041

Taken from the listing (2 entries):
Row | Sequence | pre-steady-state target cleavage rate
17 | UGGACCUACUCCUUGCAUAGUAUUUUCAAA | 0.00222 ± 0.0033
18 | UCCACCUACUCCUUGCAUAGUAUUUUCAAA | 0.00155 ± 0.0018
